PubChem BioAssay AID1259306 – Sanger Institute | 2017
The whole screen tested 794 reagents; below is a part drawn at random. Of all reagents, 11 (1.4%) got an active call. 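Calls reflect knock-down alone; synergy scores play no part, so knock-downs synergising with a drug can be called no change.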 A number with no mark means an inactive call. Not all columns of the deposit are shown. Not stated in the record: the amount of reagent, the time to read-out.

Purpose: 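Kinase-wide siRNA screen for partners of targeted drugs in colorectal cancer cells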 (primary screen)
System: human SNU-C5 colorectal cancer cells
Knock-down reagent: siRNA pool against human genes
Challenge: DMSO vehicle alone, or one anchor drug: BYL719 at 1 µM, cetuximab at 5 µg/ml or trametinib at 10 nM, given 24 h into the assay
Measurement: 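Viability versus non-targeting pool averaged across replicates, given as fraction and robust z-score, and synergy scores for BYL719, cetuximab or trametinib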
Scale: robust z-score, knock-down alone: higher = more viable cells
Rule for the call: 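Called essential when the robust z-score for knock-down alone is below -3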
Meaning of the calls: active = essential (knock-down alone); inactive = no change alone

gene knocked down | robust z-score, knock-down alone
STK31 (serine/threonine kinase 31) | 0.588
TRPM6 | 0.175
RUNX1 (RUNX family transcription factor 1) | -1.69
TLK2 (tousled like kinase 2) | 0.446
NUCKS1 | 0.989
APC (APC regulator of Wnt signaling pathway) | -1.59
CRKL (CRK like proto-oncogene, adaptor protein) | 0.872
PDGFRL (platelet derived growth factor receptor like) | 0.989
PNCK (pregnancy up-regulated nonubiquitous CaM kinase) | 0.74
HSPB8 (heat shock protein family B (small) member 8) | 0.507
DAPK2 (death associated protein kinase 2) | 0.777
SIK1 (salt inducible kinase 1) | 0.435
SMC1A (structural maintenance of chromosomes 1A) | -0.305
MAP3K21 (mitogen-activated protein kinase kinase kinase 21) | 0.041
CAMK4 (calcium/calmodulin dependent protein kinase IV) | -0.157
GUCY2F (guanylate cyclase 2F, retinal) | 0.989
MAP2K5 (mitogen-activated protein kinase kinase 5) | 0.509
PRKCH (protein kinase C eta) | -0.763
RPS6KA2 (ribosomal protein S6 kinase A2) | -1.89
ERN2 (endoplasmic reticulum to nucleus signaling 2) | 0.989
RPS6KB2 (ribosomal protein S6 kinase B2) | 0.755
LTK (leukocyte receptor tyrosine kinase) | 0.3
PGK2 (phosphoglycerate kinase 2) | -0.517
NIM1K (NIM1 serine/threonine protein kinase) | 0.103
CDKL1 (cyclin dependent kinase like 1) | 0.0148
LATS2 (large tumor suppressor kinase 2) | 0.713
PPP2R1A (protein phosphatase 2 scaffold subunit Aalpha) | 0.989
WIPF1 (WAS/WASL interacting protein family member 1) | -2.6
AXL (AXL receptor tyrosine kinase) | 0.989
MAP3K11 (mitogen-activated protein kinase kinase kinase 11) | -0.436
DCLK2 (doublecortin like kinase 2) | -2.09
EFNA5 (ephrin A5) | 0.989
PIK3C3 (phosphatidylinositol 3-kinase catalytic subunit type 3) | 0.989
MATK (megakaryocyte-associated tyrosine kinase) | 0.854

Look-ups from the entries so far.
For “robust z-score, knock-down alone”, WIPF1 (WAS/WASL interacting protein family member 1) is entered as -2.6
GUCY2F (guanylate cyclase 2F, retinal), robust z-score, knock-down alone: 0.989
For “robust z-score, knock-down alone”, PNCK (pregnancy up-regulated nonubiquitous CaM kinase) reads 0.74
For “robust z-score, knock-down alone”, AXL (AXL receptor tyrosine kinase) shows 0.989
